These results are taken from paper PMC10115800, “Two assembly modes for SIN3 histone deacetylase complexes” (Cell Discovery, 2023).

These are yes or no findings as the source states them, for the method shown. Binding seen in cells or lysates may run through a third protein. Here binding means that the protein was enriched with, or labelled near, the bait; the list need not be complete. For part of these data: A no says only that the protein was not detected with the bait. Sequences can lack the tags named with a protein.

Assay [1] has as its target T1, Pst2 with C-terminal 3× Flag-tag (S. pombe, UniProt O13919 1-1075).
T1 construct: Pst2, Sin3 homolog of S. pombe, organising subunit of the SIN3S complex; all five domains (PAH1/2/3, HID, HCR) are resolved; also called Pst2-Flag; Sin3 isoform Pst2; source: endogenous locus tagged, S. pombe; purified (ANTI-FLAG M2 resin, glycerol gradient); not shown: 3× Flag, C-terminal, kept
T1 sequence (looked up): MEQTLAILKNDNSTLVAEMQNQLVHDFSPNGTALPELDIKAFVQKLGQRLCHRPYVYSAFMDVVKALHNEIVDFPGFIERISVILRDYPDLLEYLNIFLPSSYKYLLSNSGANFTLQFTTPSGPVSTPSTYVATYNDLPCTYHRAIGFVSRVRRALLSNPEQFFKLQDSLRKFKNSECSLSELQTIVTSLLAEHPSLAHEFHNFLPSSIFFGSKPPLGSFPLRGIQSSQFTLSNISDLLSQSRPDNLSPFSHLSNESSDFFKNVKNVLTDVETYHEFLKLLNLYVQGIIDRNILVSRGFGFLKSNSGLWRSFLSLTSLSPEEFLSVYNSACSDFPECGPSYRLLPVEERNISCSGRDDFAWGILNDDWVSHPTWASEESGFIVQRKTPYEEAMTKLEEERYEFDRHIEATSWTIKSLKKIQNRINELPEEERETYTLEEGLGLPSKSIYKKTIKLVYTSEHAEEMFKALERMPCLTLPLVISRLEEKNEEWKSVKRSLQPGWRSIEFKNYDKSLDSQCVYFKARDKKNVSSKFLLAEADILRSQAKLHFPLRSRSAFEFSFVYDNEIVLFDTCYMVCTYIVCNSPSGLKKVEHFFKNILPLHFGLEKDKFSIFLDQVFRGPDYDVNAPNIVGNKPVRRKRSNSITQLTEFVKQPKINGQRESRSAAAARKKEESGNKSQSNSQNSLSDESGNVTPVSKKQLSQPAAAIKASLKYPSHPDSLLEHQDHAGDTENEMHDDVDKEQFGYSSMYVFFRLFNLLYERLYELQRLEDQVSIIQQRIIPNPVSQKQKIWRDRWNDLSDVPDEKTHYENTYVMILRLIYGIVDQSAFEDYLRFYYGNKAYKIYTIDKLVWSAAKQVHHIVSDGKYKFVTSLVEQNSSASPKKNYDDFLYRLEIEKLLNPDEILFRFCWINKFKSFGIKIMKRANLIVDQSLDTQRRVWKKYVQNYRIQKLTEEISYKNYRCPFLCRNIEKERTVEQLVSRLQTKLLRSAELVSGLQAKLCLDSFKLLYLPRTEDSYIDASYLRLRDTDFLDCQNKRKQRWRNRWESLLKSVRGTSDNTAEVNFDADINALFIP
Description: affinity purification with mass spectrometry; Pst2-3×Flag as bait from S. pombe lysate (350 mM NaCl) on ANTI-FLAG M2 resin, FLAG peptide elution, glycerol gradient; SDS-PAGE bands analysed by LC-MS/MS.

The target of assay [2] is T2, Pst3 with C-terminal 3× Flag-tag (S. pombe, UniProt O74755 1-1154).
T2 construct: Pst3, Sin3 homolog of S. pombe, subunit of the SIN3L complex; PAH3, HID and HCR are resolved in the model; Endogenous protein; also called Pst3-Flag; Sin3 isoform Pst3; source: endogenous locus tagged, S. pombe; purified (ANTI-FLAG M2 resin, glycerol gradient); not shown: 3× Flag, C-terminal, kept
T2 sequence (looked up): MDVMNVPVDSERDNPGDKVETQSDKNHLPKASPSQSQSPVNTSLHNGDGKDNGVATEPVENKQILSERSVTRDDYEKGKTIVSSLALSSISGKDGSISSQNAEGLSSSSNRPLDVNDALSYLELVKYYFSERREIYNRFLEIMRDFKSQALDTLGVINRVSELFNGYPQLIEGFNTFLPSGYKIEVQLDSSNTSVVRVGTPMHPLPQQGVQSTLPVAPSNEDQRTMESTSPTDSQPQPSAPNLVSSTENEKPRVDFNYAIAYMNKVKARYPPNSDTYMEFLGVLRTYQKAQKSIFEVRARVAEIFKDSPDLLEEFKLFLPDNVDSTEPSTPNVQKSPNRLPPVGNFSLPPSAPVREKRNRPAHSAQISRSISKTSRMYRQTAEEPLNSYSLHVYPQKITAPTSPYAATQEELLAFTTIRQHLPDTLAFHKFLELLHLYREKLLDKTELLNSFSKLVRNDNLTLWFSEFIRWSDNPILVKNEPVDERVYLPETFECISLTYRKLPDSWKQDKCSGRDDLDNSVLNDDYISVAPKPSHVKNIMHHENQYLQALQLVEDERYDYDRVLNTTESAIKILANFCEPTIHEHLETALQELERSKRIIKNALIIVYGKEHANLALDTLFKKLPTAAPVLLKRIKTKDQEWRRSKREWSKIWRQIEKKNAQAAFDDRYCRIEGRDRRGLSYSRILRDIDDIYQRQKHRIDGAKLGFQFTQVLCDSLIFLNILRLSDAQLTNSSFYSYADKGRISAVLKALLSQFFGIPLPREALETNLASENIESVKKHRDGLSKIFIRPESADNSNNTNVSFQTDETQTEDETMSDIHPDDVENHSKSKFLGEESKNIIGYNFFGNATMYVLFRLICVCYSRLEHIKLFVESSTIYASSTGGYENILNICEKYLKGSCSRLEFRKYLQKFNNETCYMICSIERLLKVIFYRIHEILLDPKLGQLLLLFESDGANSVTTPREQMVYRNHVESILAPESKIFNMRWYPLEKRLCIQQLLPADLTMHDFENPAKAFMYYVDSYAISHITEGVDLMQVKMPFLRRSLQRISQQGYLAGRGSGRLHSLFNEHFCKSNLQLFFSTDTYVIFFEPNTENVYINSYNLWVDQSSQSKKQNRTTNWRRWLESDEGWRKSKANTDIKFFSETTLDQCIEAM
Description: affinity purification with mass spectrometry; Pst3-3×Flag as bait from S. pombe lysate (350 mM NaCl) on ANTI-FLAG M2 resin, FLAG peptide elution, glycerol gradient; SDS-PAGE bands analysed by LC-MS/MS.

B1: Nrm1 (protein, UniProt O42913 1-342)
chain: MDRSMEPLTPSRLNTLGERPTNEVYEYGKGKNVQHLFPITPMQRPLGKENAAPGTISPIAVRSRNVRAVEIADENACEEPVLKIKSVSSTESEEEKESSTEIGEKQEKETHLEPKTPVQTNTNNNHLDDIQCCAKNLRLRLELAMYKVQVNQTFSPLQDLPIVAKTKLHNCPNSEPVTSIWNQRSLSSGKPPSLHLSGNRRLSMGSPTKSIYDQNGLTTPRPIGSDDLTHMYDPYTSPLRTPSRTLSRSSSHYLWVRHGKLTRSVSLLQHKTPRRIRPKSLSKSNSTPLKHLSAQKPNSNYYTGPPTPVSISNTPENIHPSSSEVRRIASHSKQFSDYGLIR
Regarding B1, the results for the binding entry in assay [1] and in assay [2] were “no binding” and “binds”, respectively.

B2: Atf1 (protein, UniProt P52890 1-566)
chain: MSPSPVNTSTEPASVAAVSNGNATASSTQVPENNQSDSFAPPSNNSQQNQQSSTIAPNGGAGSVANANPADQSDGVTPSFVGSLKLDYEPNPFEHSFGSTASVGQGNPSLNRNPSLSNIPSGVPPAFARTLLPPVSSIASPDILSGAPGIASPLGYPAWSAFTRGTMHNPLSPAIYDATLRPDYLNNPSDASAAARFSSGTGFTPGVNEPFRSLLTPTGAGFPAPSPGTANLLGFHTFDSQFPDQYRFTPRDGKPPVVNGTNGDQSDYFGANAAVHGLCLLSQVPDQQQKLQQPISSENDQAASTTANNLLKQTQQQTFPDSIRPSFTQNTNPQAVTGTMNPQASRTQQQPMYFMGSQQFNGMPSVYGDTVNPADPSLTLRQTTDFSGQNAENGSTNLPQKTSNSDMPTANSMPVKLENGTDYSTSQEPSSNANNQSSPTSSINGKASSESANGTSYSKGSSRRNSKNETDEEKRKSFLERNRQAALKCRQRKKQWLSNLQAKVEFYGNENEILSAQVSALREEIVSLKTLLIAHKDCPVAKSNSAAVATSVIGSGDLAQRINLGY
As to B2, the figures for the binding result in assay [1] and in assay [2] were “no binding” and “binds”, respectively.

B3: pre-mRNA-processing factor Prp39 (protein, UniProt O74970 1-612)
chain: MDYGDIYIAEETEWDKYNRQINKNPDDFDAWEGLVRASEHLEGGVGRNSSKQAINTLRSVYDRFLGKYPLLFGYWKKYADFEFFVAGAEASEHIYERGIAGIPHSVDLWTNYCAFKMETNGDANEVRELFMQGANMVGLDFLSHPFWDKYLEFEERQERPDNVFQLLERLIHIPLHQYARYFERFVQVSQSQPIQQLLPPDVLASIRADVTREPAKVVSAGSKQITVERGELEIEREMRARIYNIHLQIFQKVQLETAKRWTFESEIKRPYFHVKELDEAQLVNWRKYLDFEEVEGDFQRICHLYERCLITCALYDEFWFRYARWMSAQPDHLNDVSIIYERASCIFASISRPGIRVQYALFEESQGNIASAKAIYQSILTQLPGNLEAVLGWVGLERRNAPNYDLTNAHAVLRSIINEGKCNTGITEVLITEDIKLVWKIEGDIELARNMFLQNAPALLDCRHFWISFLRFELEQPLNSKNYTEHHARVSNVMEMIRNKTRLPPRTIMDLTKLYMEYLCHQSNDPSVLQEYLLIDRDVFGPFSVRESHWKKLDEGQDLKQVSTRLLSTNGHPGISVNEAKIKSGESPYEKYYRLQGVVETVTSGVAANGSS
In the case of B3, the binding result in assay [1] is on record as “no binding”; in assay [2], “binds”.
